Measurements from the supplement of paper PMC8728848.
Some of the results follow.

Key:
Experiment in all cases: glycan array binding signal (z-score within array); higher = stronger binding
Conditions in all cases: glycan notation: IUPAC condensed, linker removed
[1] = biological target: Fuc(a1-2)Gal(b1-4)[Fuc(a1-3)]GlcNAc
Outline: (§1)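 From the Consortium for Functional Glycomics database, 3228 arrays were curated, keeping only those whose protein sequence was available. Binding is given as a within-array Z-score averaged across arrays sharing a protein sequence and across linkers. Negative Z-scores can be read as non-binding.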

[2] = biological target: Fuc(a1-2)Gal(b1-4)[Fuc(a1-3)]GlcNAc(b1-2)Man(a1-3)[Fuc(a1-2)Gal(b1-4)[Fuc(a1-3)]GlcNAc(b1-2)Man(a1-6)]Man(b1-4)GlcNAc(b1-4)[Fuc(a1-6)]GlcNAc
Outline: as §1

[3] = biological target: Fuc(a1-2)Gal(b1-4)[Fuc(a1-3)]GlcNAc(b1-2)[Fuc(a1-2)Gal(b1-4)[Fuc(a1-3)]GlcNAc(b1-4)]Man(a1-3)[Fuc(a1-2)Gal(b1-4)[Fuc(a1-3)]GlcNAc(b1-2)Man(a1-6)]Man(b1-4)GlcNAc(b1-4)GlcNAc
Outline: as §1

[4] = biological target: Fuc(a1-2)Gal(b1-4)[Fuc(a1-3)]GlcNAc(b1-3)Gal(b1-4)[Fuc(a1-3)]GlcNAc
Outline: as §1

[5] = biological target: Fuc(a1-2)Gal(b1-4)[Fuc(a1-3)]GlcNAc(b1-3)Gal(b1-4)[Fuc(a1-3)]GlcNAc(b1-3)Gal(b1-4)[Fuc(a1-3)]GlcNAc
Outline: as §1

[6] = biological target: Fuc(a1-2)Gal(b1-4)[Fuc(a1-3)]GlcNAc(b1-3)GalNAc
Outline: as §1

[7] = biological target: Fuc(a1-2)Gal(b1-4)[Fuc(a1-3)]GlcNAc(b1-3)[Neu5Ac(a2-6)Gal(b1-4)GlcNAc(b1-6)]Gal(b1-4)Glc
Outline: as §1

[8] = biological target: Fuc(a1-2)Gal3S(b1-4)GlcNAc
Outline: as §1

[9] = biological target: Fuc(a1-2)Gal6S(b1-3)GlcNAc
Outline: as §1

[10] = biological target: Fuc(a1-2)Gal6S(b1-3)GlcNAc6S
Outline: as §1

[11] = biological target: Fuc(a1-2)Gal6S(b1-4)Glc
Outline: as §1

[12] = biological target: Fuc(a1-2)Gal6S(b1-4)Glc6S
Outline: as §1

[13] = biological target: Fuc(a1-2)[Gal(a1-3)]Gal
Outline: as §1

[14] = biological target: Fuc(a1-2)[Gal(a1-3)]Gal(b1-3)GalNAc
Outline: as §1

[15] = biological target: Fuc(a1-2)[Gal(a1-3)]Gal(b1-3)GalNAc(b1-3)Gal(a1-4)Gal(b1-4)Glc
Outline: as §1

[16] = biological target: Fuc(a1-2)[Gal(a1-3)]Gal(b1-3)GlcNAc
Outline: as §1

[17] = biological target: Fuc(a1-2)[Gal(a1-3)]Gal(b1-3)GlcNAc(b1-2)Man(a1-3)[Fuc(a1-2)[Gal(a1-3)]Gal(b1-3)GlcNAc(b1-2)Man(a1-6)]Man(b1-4)GlcNAc(b1-4)GlcNAc
Outline: as §1

[18] = biological target: Fuc(a1-2)[Gal(a1-3)]Gal(b1-3)GlcNAc(b1-2)Man(a1-3)[Fuc(a1-2)[Gal(a1-3)]Gal(b1-3)GlcNAc(b1-2)Man(a1-6)]Man(b1-4)GlcNAc(b1-4)[Fuc(a1-6)]GlcNAc
Outline: as §1

[19] = biological target: Fuc(a1-2)[Gal(a1-3)]Gal(b1-3)GlcNAc(b1-3)GalNAc
Outline: as §1

[20] = biological target: Fuc(a1-2)[Gal(a1-3)]Gal(b1-3)GlcNAc(b1-6)GalNAc
Outline: as §1

[21] = biological target: Fuc(a1-2)[Gal(a1-3)]Gal(b1-4)Glc
Outline: as §1

[22] = biological target: Fuc(a1-2)[Gal(a1-3)]Gal(b1-4)GlcNAc
Outline: as §1

[23] = biological target: Fuc(a1-2)[Gal(a1-3)]Gal(b1-4)GlcNAc(b1-2)Man
Outline: as §1

[24] = biological target: Fuc(a1-2)[Gal(a1-3)]Gal(b1-4)GlcNAc(b1-2)Man(a1-3)[Fuc(a1-2)[Gal(a1-3)]Gal(b1-4)GlcNAc(b1-2)Man(a1-6)]Man(b1-4)GlcNAc(b1-4)GlcNAc
Outline: as §1

[25] = biological target: Fuc(a1-2)[Gal(a1-3)]Gal(b1-4)GlcNAc(b1-2)Man(a1-3)[Fuc(a1-2)[Gal(a1-3)]Gal(b1-4)GlcNAc(b1-2)Man(a1-6)]Man(b1-4)GlcNAc(b1-4)[Fuc(a1-6)]GlcNAc
Outline: as §1

[26] = biological target: Fuc(a1-2)[Gal(a1-3)]Gal(b1-4)GlcNAc(b1-3)GalNAc
Outline: as §1

[27] = biological target: Fuc(a1-2)[Gal(a1-3)]Gal(b1-4)GlcNAc(b1-3)[Fuc(a1-2)[Gal(a1-3)]Gal(b1-4)GlcNAc(b1-6)]GalNAc
Outline: as §1

[28] = biological target: Fuc(a1-2)[Gal(a1-3)]Gal(b1-4)GlcNAc(b1-6)GalNAc
Outline: as §1

[29] = biological target: Fuc(a1-2)[Gal(a1-3)]Gal(b1-4)[Fuc(a1-3)]Glc
Outline: as §1

[30] = biological target: Fuc(a1-2)[Gal(a1-3)]Gal(b1-4)[Fuc(a1-3)]GlcNAc
Outline: as §1

[31] = biological target: Fuc(a1-2)[Gal(a1-3)]Gal(b1-4)[Fuc(a1-3)]GlcNAc(b1-3)GalNAc
Outline: as §1

[32] = biological target: Fuc(a1-2)[Gal(a1-4)]Gal(b1-4)GlcNAc
Outline: as §1

[33] = biological target: Fuc(a1-2)[GalNAc(a1-3)]Gal
Outline: as §1

[34] = biological target: Fuc(a1-2)[GalNAc(a1-3)]Gal(b1-3)GalNAc(a1-3)[Fuc(a1-2)]Gal(b1-4)GlcNAc
Outline: as §1

[35] = biological target: Fuc(a1-2)[GalNAc(a1-3)]Gal(b1-3)GalNAc(b1-3)Gal(a1-4)Gal(b1-4)Glc
Outline: as §1

[36] = biological target: Fuc(a1-2)[GalNAc(a1-3)]Gal(b1-3)GlcNAc
Outline: as §1

[37] = biological target: Fuc(a1-2)[GalNAc(a1-3)]Gal(b1-3)GlcNAc(b1-2)Man(a1-3)[Fuc(a1-2)[GalNAc(a1-3)]Gal(b1-3)GlcNAc(b1-2)Man(a1-6)]Man(b1-4)GlcNAc(b1-4)GlcNAc
Outline: as §1

[38] = biological target: Fuc(a1-2)[GalNAc(a1-3)]Gal(b1-3)GlcNAc(b1-2)Man(a1-3)[Fuc(a1-2)[GalNAc(a1-3)]Gal(b1-3)GlcNAc(b1-2)Man(a1-6)]Man(b1-4)GlcNAc(b1-4)[Fuc(a1-6)]GlcNAc
Outline: as §1

B1: ERGIC1-EDTA (Homo sapiens), Q969X5 (protein)
chain: MKFLVNVALVFMVVYISYIYAAAHMHHHHHHDYDIPTTENLYFQGSEVVNELYVDDPDKDSGGKIDVSLNISLPNLHCELVGLDIQDEMGRHEVGHIDNSMKIPLNNGAGCRFEGQFSINKVPGNFHVSTHSATAQPQNPDMTHVIHKLSFGDTLQVQNIHGAFNALGGADRLTSNPLASHDYILKIVPTVYEDKSGKQRYSYQYTVANKEYVAYSHTGRIIPAIWFRYDLSPITVKYTE
In the case of B1, the “glycan array binding signal (z-score)” value [1] is reported as -0.181, the “glycan array binding signal (z-score)” value [2] is reported as -0.009 and the “glycan array binding signal (z-score)” value [3] is reported as 1.07. For the same binder, the “glycan array binding signal (z-score)” value [4] was 0.599, the “glycan array binding signal (z-score)” value [5] was 0.112 and the “glycan array binding signal (z-score)” value [6] was 0.086. For the same binder, the “glycan array binding signal (z-score)” value [7] was -0.254, the “glycan array binding signal (z-score)” value [8] was -0.898 and the “glycan array binding signal (z-score)” value [9] was -0.66. For the same binder, the “glycan array binding signal (z-score)” value [10] was 0.311, the “glycan array binding signal (z-score)” value [11] was 1.11 and the “glycan array binding signal (z-score)” value [12] was -0.133. For the same binder, the “glycan array binding signal (z-score)” value [13] was -0.808, the “glycan array binding signal (z-score)” value [14] was -0.427 and the “glycan array binding signal (z-score)” value [15] was -1.14. For the same binder, the “glycan array binding signal (z-score)” value [16] was -0.706, the “glycan array binding signal (z-score)” value [17] was -0.168 and the “glycan array binding signal (z-score)” value [18] was 0.778. For the same binder, the “glycan array binding signal (z-score)” value [19] was 0.708, the “glycan array binding signal (z-score)” value [20] was 0.046 and the “glycan array binding signal (z-score)” value [21] was 0.37. For the same binder, the “glycan array binding signal (z-score)” value [22] was -0.089, the “glycan array binding signal (z-score)” value [23] was 0.546 and the “glycan array binding signal (z-score)” value [24] was 0.131. The “glycan array binding signal (z-score)” value [25] was 0.154, the “glycan array binding signal (z-score)” value [26] was -0.424 and the “glycan array binding signal (z-score)” value [27] was 0.043. The “glycan array binding signal (z-score)” value [28] was 0.75, the “glycan array binding signal (z-score)” value [29] was 0.591 and the “glycan array binding signal (z-score)” value [30] was -0.221. The “glycan array binding signal (z-score)” value [31] was 0.81, the “glycan array binding signal (z-score)” value [32] was 0.441 and the “glycan array binding signal (z-score)” value [33] was -0.157. For the same binder, the “glycan array binding signal (z-score)” value [34] was -1.34, the “glycan array binding signal (z-score)” value [35] was 0.746 and the “glycan array binding signal (z-score)” value [36] was 0.499. For the same binder, the “glycan array binding signal (z-score)” value [37] was -1.8 and the “glycan array binding signal (z-score)” value [38] was 0.638.
